# Measured values: patent publication US20220235144A1
# Changes are numbered by the printed parent chain. Results are given in words; binding and its absence hold for the method and conditions named. Binding can be weak; no strength is given.
# B1: Ab1_G4 (antibody, human IgG4 S228P, kappa, V domains shown)
# VH: EVQLVESGGGLVKPGGSLRLSCAASGFTFSSYVMSWVRQTPGKGLEWVATISSGGTYTYYPSSVKGRFTLSRDNAKNSLYLQMNSLRAEDTAVYYCASSLTGSSFDYWGQGTTVTVSS
# VL: DIVLTQSPASLAVSLGERATISCRASESVDLYGTSFMHWYQQKPGQPPKLLIYRASNLESGVPDRFSGSGSRTDFTLTINPLQAEDVATYYCHQSSDELPWTFGGGTKVEIKR
# B2: Ab9_G4 (antibody, human IgG4 S228P, kappa, V domains shown)
# VH: B1 VH with S62N, A97V, L100M
# VL: B1 VL with L4I, L31S, T34N, D97E, E98Q
# B3: Ab11_G4 (antibody, human IgG4 S228P, kappa, V domains shown)
# VH: B1 VH with S62D, S99Q, S104E
# VL: DIVITQSPASLAVSLGERATISCRASESVDSYGNSFMHWYQQKPGQPPKLLIYRASNLESGVPDRFSGSGSRTDFTLTINPLQAEDVATYYCHQSGDLPWTFGGGTKVEIKR
# B4: Ab8_G4 (antibody, human IgG4 S228P, kappa, V domains shown)
# VH: B1 VH with S62E, S99Q, S104E
# VL: B3 VL with I4M, G96A
# B5: Ab2_G4 (antibody, human IgG4 S228P, kappa, V domains shown)
# VH: B1 VH with S62D, L100V, T101D, S104A
# VL: B1 VL with L4I, L31S, T34M, D97E, E98N
# Target: cSIRPαV2D1 with histidine tag (cynomolgus monkey (Macaca fascicularis))
# Test: SPR (Biacore), summary of Tables 13 and 14
row,binding,Binder
1,binds,B1
2,binds,B2
3,binds,B3
4,binds,B4
5,binds,B5

# Target: cSIRPαV1D1 with histidine tag (cynomolgus monkey (Macaca fascicularis))
# Test: SPR (Biacore), summary of Tables 13 and 14
row,binding,Binder
1,binds,B1
2,binds,B2
3,binds,B3
4,binds,B4
5,binds,B5
